# Data as given in PubChem BioAssay AID1347076 (National Center for Advancing Translational Sciences (NCATS), 2019).
# About 13,000 (3.2%) of roughly 400,000 compounds were called active. This list was built around the results that the source calls inconclusive (neither active nor inactive); the mix of calls is not that of the screen. Calls follow the shape of the dose curve; as a rule, active = well fitted cell-killing curve with a large enough effect; inconclusive = small, poorly fitted or top-dose-only effect, or effect the other way; inactive = flat fitted curve, though single readings scatter. Potencies beside an inconclusive call are fits to weak or partial responses and may not hold up.
# Assay: qHTS assay for MDR1-selective chemotherapeutics: Primary screen using the drug-selected MDR subline cells KB-V1; also: nearly all actives have a fitted effect of over 60% in size
# Conditions: KB-V1 MDR cells viability, CellTiter-Glo, 72 h; series mostly up to 46.1 µM
# How it was run: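 Cytotoxicity toward P-gp-expressing KB-V1 cells was determined as loss of CellTiter-Glo luminescence after 72 h at 37 degrees C. Compounds were tested in quantitative HTS format across a concentration range, with curves fitted to normalized data.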
# Potency is read from the fitted curve at half-maximal effect.
row,Compound,Potency
1,CC(C)(C)C(=O)Nc1ccc(S(=O)(=O)NC2=NCCCCC2)cc1,"inconclusive: 16.4 µM [rising, partial curve]"
2,O=C(CSc1n[nH]c(=O)n1Cc1ccco1)Nc1ccccc1,"inconclusive: 9.2 µM [rising, partial curve, poor fit]"
3,COc1cccc(Cn2cnc3c(N)c(C)c(C)cc32)c1,"inconclusive: 29.1 µM [rising, single point]"
4,COc1ccccc1C(=O)NC(C)C(c1cccs1)N1CCN(C)CC1 (stereo unspecified),active: 18.4 µM
5,CCOc1ccc(CCNc2ncnc3onc(-c4ccc(F)cc4)c23)cc1OCC,active: 2.59 µM
6,O=S(Cc1ccc(Cl)cc1)CC(O)COCc1ccc(Cl)cc1 (stereo unspecified),active: 16.4 µM
7,CC(C)COC(=O)c1ccc(N2C(=O)c3ccccc3C2=O)cc1,"inconclusive: 2.91 µM [rising, partial curve, poor fit]"
8,COc1ccc(NC(=O)c2cc(CN3C(=O)c4ccccc4C3=O)ccc2OC)cn1,"inconclusive: 25.9 µM [cytotoxic, single point]"
9,CCN(CC)CCCNC(=O)CCc1c(C)n(CC)c2cc(-c3ccccc3OC)nn2c1=O,"inconclusive: 16.4 µM [rising, partial curve]"
10,Brc1c(-c2ccc3c(c2)OCO3)nc2ncccn12,"inconclusive: 18.4 µM [cytotoxic, single point]"
11,Cc1ncc(COC(=O)C(C)C)c2cc(C(=O)Nc3ccccc3C(F)(F)F)c(=O)oc12,inactive
12,Cc1ccccc1S(=O)(=O)NC(=O)C1(C)CCN1C(=O)CCc1cccs1 (stereo unspecified),inactive
13,Cc1c(C#N)c(N)nc2c3c(sc12)NC(=O)CC3c1ccc(Cl)cc1 (stereo unspecified),"inconclusive: 23.1 µM [cytotoxic, partial curve, poor fit]"
14,Cc1cccc(N2C(=O)CS(=O)(=O)C23C(=O)N(C)c2ccccc23)c1 (stereo unspecified),"inconclusive: 29.1 µM [rising, single point]"
15,COc1ccc2[nH]cc(C(=O)CNc3nccs3)c2c1,inactive
16,Nc1nc2cc(Cl)ccc2n1N,inactive
17,CCCNC(=O)c1ccccc1NS(=O)(=O)c1ccc(OC)c(OC)c1,"inconclusive: 29.1 µM [cytotoxic, single point]"
18,Cc1ccccc1CN(C)CC(=O)Nc1ccccc1Oc1ccccc1,"inconclusive: 20.6 µM [cytotoxic, single point]"
19,CCOC(=O)C1=C(COC(=O)C2CC(=O)N(c3ccccc3F)C2)NC(=O)NC1C (stereo unspecified),inactive
20,Nc1c(NC2CCCCC2)c2ccccc2oc1=O,active: 16.4 µM
21,O=[N+]([O-])c1ccc(C2CCCC/C2=N\OCc2cccc(F)c2)c([N+](=O)[O-])c1 (stereo unspecified),active: 10.3 µM
22,COc1ccccc1NC(=O)CSc1nnnn1C1CCCCC1,"inconclusive: 23.1 µM [cytotoxic, single point]"
23,CC(C)(C)c1cc(C(=O)CCN2CCOCC2)cc(C(C)(C)C)c1O,"inconclusive: 20.6 µM [rising, partial curve, poor fit]"

row,Compound,Potency
1,COc1ccc(-n2nnnc2C2c3ccccc3C(=O)N2C2CCN(Cc3ccccc3)CC2)cc1 (stereo unspecified),"inconclusive: 7.31 µM [cytotoxic, partial curve]"
2,CC(=O)Nc1cccc(-c2ccnc3c2CC(C)(C(=O)Nc2ccc(Cl)c(C(F)(F)F)c2)O3)c1 (stereo unspecified),"inconclusive: 20.6 µM [cytotoxic, single point]"
3,CC(=O)Nc1cc(-c2ccc(C(=O)NC3CC3)cc2)cn2c(-c3cccc(C(C)=O)c3)cnc12,inactive
4,C/C(=N/NC(=O)c1ccc(Cn2cccn2)o1)c1cccc(NC(=O)c2ccncc2)c1,inactive
5,CCOC(=O)c1ccc(N2CCOCC2)c(NC(=O)c2ccc3c(c2)OCO3)c1,"inconclusive: 4.61 µM [cytotoxic, partial curve, poor fit]"
6,CNCCCOc1cc2nc(N3CCCN(C)CC3)nc(NC3CCN(C)CC3)c2cc1OC,"inconclusive: 18.4 µM [rising, single point]"
7,Cc1c(C(=O)O)sc2nc(/C=C/c3cccc(F)c3)[nH]c(=O)c12,inactive
8,O=C(CSc1nnnn1C1CCCCC1)Nc1ccccc1N1CCOCC1,"inconclusive: 6.51 µM [cytotoxic, partial curve, poor fit]"
9,C/C(CC1CC(COCC(C)C)OC1=O)=N\Nc1nc(-c2ccccc2)cs1 (stereo unspecified),"inconclusive: 29.1 µM [cytotoxic, single point]"
10,O=C(N/N=C/c1cnc(N2CCCCC2)s1)c1ccc(Cl)cc1,"inconclusive: 6.51 µM [cytotoxic, partial curve]"
11,COc1ccc(/C=C(/C#N)c2cccnc2)cc1OC,"inconclusive: 9.2 µM [cytotoxic, partial curve]"
12,O=c1cc(-c2cccs2)oc2ccc(Cl)cc12,"inconclusive: 18.4 µM [cytotoxic, single point]"
13,COCc1c(C(=O)OCC(=O)NCCN2C(=O)CSC2=O)oc2ccccc12,inactive
14,FC(F)(F)c1cnc(NNC(=S)Nc2ccccc2Cl)c(Cl)c1,"inconclusive: 32.6 µM [cytotoxic, single point]"
15,CCCCc1ccc(C(=O)Nc2ccc3nc(N(CC)CC)cc(C)c3c2)cc1,inactive
16,NC(=O)Nc1ccc(F)cc1,"inconclusive: 18.4 µM [rising, single point]"
17,O=C(Nc1ccc(-c2cn3c(n2)SCC3)cc1)c1ccc2ccccc2n1,"inconclusive: 2.31 µM [cytotoxic, full curve]"
18,Cc1ccc(S(=O)(=O)Oc2ccccc2/C=N/O)cc1,inactive
19,COc1ccc(CCC(=O)NNC(=O)c2ccc(F)cc2)cc1,inactive
20,CCOC(=O)C1(Cc2cccc(Cl)c2)CCCN(C(=O)CCC(=O)N(C)C)C1 (stereo unspecified),"inconclusive: 9.2 µM [cytotoxic, partial curve]"
21,O=C(CN(c1ccc(F)cc1)S(=O)(=O)c1ccc2c(c1)OCCO2)NCc1ccccc1,inactive
22,Cn1cc(-c2cnc3c(NC=O)cc(-c4cccc(C(F)(F)F)c4)cn23)cn1,active: 20.6 µM
23,COc1ccc(C(C(=O)NC(C)(C)C)n2c(COc3ccc(C)cc3)nc3ccccc32)cc1 (stereo unspecified),"inconclusive: 5.8 µM [cytotoxic, partial curve, poor fit]"

# Among those listed so far, these contain a cyano group:
row,Compound,Potency
13,Cc1c(C#N)c(N)nc2c3c(sc12)NC(=O)CC3c1ccc(Cl)cc1 (stereo unspecified),"inconclusive: 23.1 µM [cytotoxic, partial curve, poor fit]"
11,COc1ccc(/C=C(/C#N)c2cccnc2)cc1OC,"inconclusive: 9.2 µM [cytotoxic, partial curve]"
